# Experimental data from patent US20040121357A1, “Artificial endonuclease” (priority 2004, published 2004).
# “Also recorded” adds a separate entry of the source. For some assays here: Part of at least one peptide drawing is inferred or uncertain, most often the ends. For some assays here: At least one read-out could not be matched to a standard name with certainty. Where no end group is shown, it is not given here.
# Assays:
# [1] = tested on: supercoiled plasmid DNA (pBR322); assay: DNA gel shift assay (agarose gel electrophoresis); assay type: binding; details: 5-25 μM ligand, 15 minutes, room temperature
# Protocol: DNA Gel Shift Assays. The affinity of EuP3, EuP2, and each free peptide for supercoiled plasmid DNA was examined by agarose gel electrophoresis. Plasmid (pBR322, New England Biolabs, Inc.) was incubated for 15 minutes at room temperature with increasing concentrations of each ligand (5-25 μM), prior to the addition of loading dye. Each lane contained 1 μg plasmid (50 μM base pairs) in 10 mM Tris buffer at pH 8.0. […] The interaction of ligand with supercoiled plasmid (type I) can be observed if run under conditions where the DNA-ligand interactions are not disturbed during electrophoresis. Supercoiled pBR322 was chosen as a standard plasmid, and was incubated for 15 minutes with EuCl3, EuP3, EuP2, or free peptide prior to electrophoresis. This small, 4,361 bp plasmid contains three [NT] sequences, and eight […] sequences, partial target sequences for engrailed homeodomain. In the absence of 0.1 M EDTA (normally added prior to electrophoresis to quench hydrolytic cleavage assays) and with short incubation times to minimize metal-catalyzed cleavage, a gel shift can be observed. […] From quantified concentration-dependent gel shift data, an estimate of the binding affinity of EuP3 can be made. Gels with increasing Eu-peptide concentrations (5 to 25 μM in each set) were quantified (ImageQuant; Molecular Simulations), and average band volumes were plotted versus concentration. […]
# [2] = Circular dichroism titration of peptides with Eu(III) (incl. TFE helix induction); details: initial portion of the curve (0-50 μM Eu(III)); read-out: Metal binding affinity (K1, Kd) estimated from CD titration
# [3] = tested on: ^32P-labeled fragment of pBR322; assay: Cleavage of 32P-labeled DNA fragment, acrylamide gel electrophoresis; assay type: biochemical; details: 20-60 μM peptide, 40 μM Ce^4+
# Protocol: FIG. 10. Sequence specificity of artificial endonucleases. […] Controls (water) were conducted to measure background cleavage. […] Minor products run with Maxam-Gilbert lanes.
# Sequence Selective DNA Cleavage. […] This cleavage is not dependent on the strain inherent in supercoiled plasmid, as cleavage of linearized ^32P-labeled DNA oligonucleotides was observed as well. Labeled fragments were incubated with Ce(NH3)6(NO3)4 and varying concentrations of peptides P3 or P3W at 37° C. overnight and analyzed by acrylamide gel electrophoresis (FIG. 10). Cleavage was concentration dependent, and distinct between metallopeptides.
# [4] = tested on: 3T3 fibroblasts; assay: Cell entry of fluorescein-labeled peptide; assay type: cell-based; details: fluorescein-labeled P3W, with or without Eu
# [5] = tested on: supercoiled plasmid DNA; assay: Cleavage of supercoiled plasmid DNA, agarose gel electrophoresis; assay type: biochemical; details: 37° C.; pUC19 for EuP3; Eu(III) and Ce(IV) complexes for P3W
# Protocol: FIG. 8. […] Samples containing 1 μg plasmid (about 60 μM b.p.) in 10 mM Tris buffer, pH=7.0, were incubated for 48 hours at 37° C. Reactions were quenched by the addition of 0.5 M EDTA to a final concentration of 10 mM, followed by addition of 100 mM KCl. The reaction mixtures were then treated with Amberlyst cation exchange resin prior to electrophoresis. Lane 1: pUC19 DNA control; lanes 2-5: DNA plus increasing concentrations of EuC13 (20, 30, 50 and 100 μM); lanes 6-9: DNA plus increasing concentrations of free P3 (20, 30, 50 and 100 μM); lanes 10-15: DNA plus increasing concentrations of 1:1 Eu:P3 (10, 20, 30, 40, 50 and 100 μM).
# The conversion of supercoiled plasmid (type I) to open circular (type II), linear (type III), or smaller fragments was monitored by agarose gel electrophoresis. Because the synthetic peptides bind strongly to DNA, thus preventing the observation of products, the peptides were chelated prior to electrophoresis (Falke et al., 1994). At the point each reaction was quenched (0.1 M EDTA), a suspension of neutral, washed, cation resin (Amberlyst, 10-20 μL) was incubated with each sample for 30 minutes, spun down, and the supernatent loaded into wells. After 24 hours of reaction (incubated at 37° C.), the concentration-dependent formation of open circular plasmid was observed (FIG. 8). […]
# [6] = 1H-NMR titration and dilution study of EuP3; assay type: binding; details: approaching 1 mM Eu:P3; read-out: Kd2 of the lower affinity metal site
# [7] = Isothermal titration microcalorimetry of Eu(III) binding to P3; details: read-out: dissociation constant (Kd) for EuP3
substance,measurement,setting,value
"ERRRQQLSSEAETIFGDGDKDEIKIWFQNKRAK [P2, reference compound]",Gel shift / affinity for supercoiled plasmid DNA (in words),[1],neither P2 nor EuP2 has appreciable DNA affinity; also recorded: not seen
TERRRQQLDKDGDGTIDEREIKIHFQNKRAKIK [P3],Gel shift / affinity for supercoiled plasmid DNA (in words),[1],"a gel shift is also observed for free P3, though at slightly higher concentrations; also recorded: attenuated shift"
same,Kd,[2],≤ 20 µM
TERRRQQLDKDGDGTIDEREIKIWFQNKRAKIK [P3W],Sequence preference of cleavage (in words),[3],regioselective and sequence dependent cleavage; also recorded: shows sequence preference for cleavage
same,Cell entry (in words),[4],enter cells in a metal-dependent manner
same,Cleavage of supercoiled plasmid DNA (in words),[5],"catalyze the hydrolysis of supercoiled DNA, producing primarily single cuts"
EuP3: Eu(III)-bound peptide P3 (1:1 Eu-peptide) (TERRRQQLDKDGDGTIDEREIKIHFQNKRAKIK),Kd,[6],~1000 µM
same,Kd,[7],10 ± 4 µM
